The record followed here is paper doi:10.1101/2023.07.11.548643.

Amino acid sequences for entries named in this document (tags omitted).
UniProt P04198: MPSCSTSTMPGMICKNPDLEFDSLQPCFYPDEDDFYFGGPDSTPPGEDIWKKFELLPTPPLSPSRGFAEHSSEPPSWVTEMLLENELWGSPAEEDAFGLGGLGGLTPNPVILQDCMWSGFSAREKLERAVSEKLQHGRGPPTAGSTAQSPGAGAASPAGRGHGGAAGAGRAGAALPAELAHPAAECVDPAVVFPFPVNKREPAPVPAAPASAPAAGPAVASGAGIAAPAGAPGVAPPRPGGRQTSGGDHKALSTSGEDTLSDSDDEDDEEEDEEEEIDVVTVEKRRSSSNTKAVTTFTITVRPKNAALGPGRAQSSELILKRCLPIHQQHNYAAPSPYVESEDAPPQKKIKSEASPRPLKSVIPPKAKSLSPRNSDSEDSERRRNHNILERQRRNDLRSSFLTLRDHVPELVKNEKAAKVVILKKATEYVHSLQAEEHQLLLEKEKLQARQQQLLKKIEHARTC
UniProt Q02880: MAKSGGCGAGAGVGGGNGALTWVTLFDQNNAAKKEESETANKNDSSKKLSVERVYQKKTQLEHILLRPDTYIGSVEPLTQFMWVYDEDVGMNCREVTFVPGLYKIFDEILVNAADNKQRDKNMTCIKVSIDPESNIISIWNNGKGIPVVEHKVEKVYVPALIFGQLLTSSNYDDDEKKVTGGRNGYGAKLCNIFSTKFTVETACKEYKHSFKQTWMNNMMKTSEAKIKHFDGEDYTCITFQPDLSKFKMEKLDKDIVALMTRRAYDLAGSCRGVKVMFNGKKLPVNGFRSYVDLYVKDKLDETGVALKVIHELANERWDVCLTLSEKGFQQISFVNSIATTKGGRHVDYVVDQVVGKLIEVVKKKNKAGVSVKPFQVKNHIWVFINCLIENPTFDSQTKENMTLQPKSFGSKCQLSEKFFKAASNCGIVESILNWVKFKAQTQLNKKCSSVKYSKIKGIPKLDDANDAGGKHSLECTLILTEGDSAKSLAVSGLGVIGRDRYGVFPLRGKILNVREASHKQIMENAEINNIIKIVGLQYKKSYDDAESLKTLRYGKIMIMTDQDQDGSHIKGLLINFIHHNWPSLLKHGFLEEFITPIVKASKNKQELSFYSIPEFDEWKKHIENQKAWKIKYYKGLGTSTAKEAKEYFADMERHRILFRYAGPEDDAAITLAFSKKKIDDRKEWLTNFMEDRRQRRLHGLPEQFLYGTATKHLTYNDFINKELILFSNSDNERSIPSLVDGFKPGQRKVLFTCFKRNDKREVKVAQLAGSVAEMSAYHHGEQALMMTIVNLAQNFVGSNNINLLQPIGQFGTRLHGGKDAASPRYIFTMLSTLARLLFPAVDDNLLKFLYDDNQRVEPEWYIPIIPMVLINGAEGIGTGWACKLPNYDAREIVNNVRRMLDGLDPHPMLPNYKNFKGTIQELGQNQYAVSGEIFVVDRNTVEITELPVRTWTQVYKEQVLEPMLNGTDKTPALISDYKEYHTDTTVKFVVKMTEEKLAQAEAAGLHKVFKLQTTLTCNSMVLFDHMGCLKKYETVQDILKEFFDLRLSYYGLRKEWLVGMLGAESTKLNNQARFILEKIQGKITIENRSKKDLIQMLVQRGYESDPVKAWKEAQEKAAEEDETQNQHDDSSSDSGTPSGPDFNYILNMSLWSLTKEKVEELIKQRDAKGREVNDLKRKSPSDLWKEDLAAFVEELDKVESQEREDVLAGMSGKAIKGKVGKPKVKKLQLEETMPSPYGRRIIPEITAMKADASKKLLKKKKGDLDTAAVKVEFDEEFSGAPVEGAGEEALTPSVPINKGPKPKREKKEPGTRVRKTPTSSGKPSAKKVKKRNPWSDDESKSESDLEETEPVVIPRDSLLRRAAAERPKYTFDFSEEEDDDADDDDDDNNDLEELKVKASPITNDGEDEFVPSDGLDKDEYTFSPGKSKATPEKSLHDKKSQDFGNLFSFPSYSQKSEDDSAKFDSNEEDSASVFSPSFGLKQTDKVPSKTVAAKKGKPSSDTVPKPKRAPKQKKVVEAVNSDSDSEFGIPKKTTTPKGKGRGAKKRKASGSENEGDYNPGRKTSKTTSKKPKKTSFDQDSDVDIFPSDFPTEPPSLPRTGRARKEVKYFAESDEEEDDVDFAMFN
UniProt Q96KQ7: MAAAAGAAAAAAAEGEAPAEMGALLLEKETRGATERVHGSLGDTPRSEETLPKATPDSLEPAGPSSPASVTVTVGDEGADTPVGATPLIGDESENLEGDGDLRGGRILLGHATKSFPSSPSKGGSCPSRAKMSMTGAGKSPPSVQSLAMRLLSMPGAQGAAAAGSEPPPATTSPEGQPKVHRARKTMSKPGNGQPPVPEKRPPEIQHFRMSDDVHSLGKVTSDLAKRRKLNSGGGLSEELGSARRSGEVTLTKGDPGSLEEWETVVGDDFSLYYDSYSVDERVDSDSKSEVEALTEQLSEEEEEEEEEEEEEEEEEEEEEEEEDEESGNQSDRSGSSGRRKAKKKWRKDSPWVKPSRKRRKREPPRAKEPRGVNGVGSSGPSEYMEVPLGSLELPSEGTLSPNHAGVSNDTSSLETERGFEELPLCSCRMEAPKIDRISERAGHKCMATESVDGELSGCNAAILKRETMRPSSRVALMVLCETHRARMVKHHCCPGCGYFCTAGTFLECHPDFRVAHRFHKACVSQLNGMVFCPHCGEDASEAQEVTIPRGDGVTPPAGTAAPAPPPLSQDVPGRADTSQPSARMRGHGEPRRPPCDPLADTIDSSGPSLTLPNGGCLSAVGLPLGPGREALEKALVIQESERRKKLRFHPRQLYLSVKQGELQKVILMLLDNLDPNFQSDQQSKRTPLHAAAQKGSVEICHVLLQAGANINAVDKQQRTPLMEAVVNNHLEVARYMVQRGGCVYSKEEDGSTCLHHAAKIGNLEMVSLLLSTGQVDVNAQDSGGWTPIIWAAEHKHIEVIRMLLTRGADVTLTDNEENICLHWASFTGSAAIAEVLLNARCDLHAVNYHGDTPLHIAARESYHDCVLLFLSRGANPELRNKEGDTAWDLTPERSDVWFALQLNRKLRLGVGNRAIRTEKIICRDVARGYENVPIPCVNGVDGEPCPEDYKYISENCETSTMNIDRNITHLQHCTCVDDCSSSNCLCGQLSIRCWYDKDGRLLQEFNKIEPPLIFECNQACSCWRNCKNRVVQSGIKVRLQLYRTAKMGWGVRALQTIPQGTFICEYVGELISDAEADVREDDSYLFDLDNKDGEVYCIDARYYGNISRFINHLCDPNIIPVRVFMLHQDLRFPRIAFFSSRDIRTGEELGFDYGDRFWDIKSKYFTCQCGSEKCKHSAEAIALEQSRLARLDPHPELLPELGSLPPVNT
UniProt P61244: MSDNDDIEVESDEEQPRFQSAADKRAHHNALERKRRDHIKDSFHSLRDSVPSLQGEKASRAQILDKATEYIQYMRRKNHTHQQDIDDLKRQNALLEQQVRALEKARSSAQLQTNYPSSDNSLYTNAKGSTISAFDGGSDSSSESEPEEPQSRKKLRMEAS

Results are given in words; binding and its absence hold for the method and conditions named. Binding seen in cells or lysates may run through a third protein. Here binding means that the protein was enriched with, or labelled near, the bait; the list need not be complete.

In this assay the target is MYCN (human (endogenous in IMR32)) (UniProt P04198). Put plainly: affinity purification with mass spectrometry; endogenous MYCN precipitated from IMR32 lysate (20 mg; 50 mM pH 7.5 Tris-HCl, 137 mM NaCl, 1 mM DTT, 1 mM EDTA, 0.5% Triton X-100) with two different MYCN antibodies or normal IgG on Dynabeads M-280 sheep anti-mouse IgG, 4°C, 4 h; differentially pulled-down gel bands sequenced by mass spectrometry; no Benzonase added.
For “topoisomerase IIB (from UniProt Q02880 1-1626)”, the binding entry is recorded as “binds”.
In the case of G9a (from UniProt Q96KQ7 1-1210), the binding entry was “binds”.
In the case of TRRAP (from UniProt Q9Y4A5 1-3859) it was “binds”; in that of MAX (from UniProt P61244 1-160), “binds”.
